Laboratory results from article PMC9848475.

How the values were obtained:
[1] = target: Irgb10 fused to a fragment of TEM-1 β-lactamase (mouse); experiment: split reporter; protein-fragment complementation assay of Irgb10 fused to different Bla fragments in HEK293T, in absence and presence of co-transfected ROP39 (wt or D/N) not fused to any Bla fragment; nitrocefin hydrolysis, absorbance at 495 nm
[2] = target: Irgb10 fused to a fragment of TEM-1 β-lactamase (mouse); experiment: split reporter; protein-fragment complementation assay with split TEM-1 β-lactamase (BlaN, BlaC fusions) co-transfected in HEK293T; nitrocefin hydrolysis in lysates, absorbance at 495 nm

B1: kinase dead ROP39 (ROP39D/N) used as inhibitor of Irgb10 dimerisation (protein, UniProt S8F1L0 1-588)
chain: MSKPFFPQVWVSCTGGVLNLRRHWLRVGNMSRAFAPTVLFVLLNVGGSLWVPRTLPVSAFQDAVAPHHPCIGRPCDQVASVVAVPPANNLGFKREPSVGSPGHFSFLQAVGGVGGPPYAGDGSPLLASRLDWQFLQQWHTDEDENARDGFVAALSRVTRLSQILEDCNMEMVLLLDRVFSRSPRITLSAVEPRTHRRRTLKLKIRSVAGTGGYNIVVKAFVIKSWFFRLGHWLGSLGRQRNTARAPGGETGQQTGTSGRRSSRSRGQSGREEGRREPQMVSLRIRVGGAPDCQVANEMQAAEVVQKCVSEADRIMHVFPEDVTPDVLVSRFRFAVPLYSGRIRHRSALLGQSRGYALLNYMDVLPPMLCDLFAAQSVVQPSMTRAIAKQLLELVAHLQALGVVHSNLKPENVLVDEAGNLFLADFDKAHKVGSRVRCSSLPHSLFADPQTVICRETTPDQEVTLAFSQDAWALGMLMYDTFCRNWPFMGMDYNNDSDTSNTIVLAGLLDRAAAVDTRAPIDWIGCDNPRVESEIKDLISRLLDIDPENRLDVLSFYMHSDFFNEGRNEANRSPPQRGAPILPLRESIV
binding [1]: binds

B2: kinase dead ROP39 (ROP39D/N) fused to a fragment of TEM-1 β-lactamase (protein, UniProt S8F1L0 1-588)
chain: MSKPFFPQVWVSCTGGVLNLRRHWLRVGNMSRAFAPTVLFVLLNVGGSLWVPRTLPVSAFQDAVAPHHPCIGRPCDQVASVVAVPPANNLGFKREPSVGSPGHFSFLQAVGGVGGPPYAGDGSPLLASRLDWQFLQQWHTDEDENARDGFVAALSRVTRLSQILEDCNMEMVLLLDRVFSRSPRITLSAVEPRTHRRRTLKLKIRSVAGTGGYNIVVKAFVIKSWFFRLGHWLGSLGRQRNTARAPGGETGQQTGTSGRRSSRSRGQSGREEGRREPQMVSLRIRVGGAPDCQVANEMQAAEVVQKCVSEADRIMHVFPEDVTPDVLVSRFRFAVPLYSGRIRHRSALLGQSRGYALLNYMDVLPPMLCDLFAAQSVVQPSMTRAIAKQLLELVAHLQALGVVHSNLKPENVLVDEAGNLFLADFDKAHKVGSRVRCSSLPHSLFADPQTVICRETTPDQEVTLAFSQDAWALGMLMYDTFCRNWPFMGMDYNNDSDTSNTIVLAGLLDRAAAVDTRAPIDWIGCDNPRVESEIKDLISRLLDIDPENRLDVLSFYMHSDFFNEGRNEANRSPPQRGAPILPLRESIV
binding [2]: binds

No constants are given. Whether binding was seen depends on the method and setting. In cells and extracts the contact can be indirect. Binding calls can cover weak binding; strength is not graded here. For some assays here: Tags and fused reporters may be left off the sequences shown.
